In article PMC11417211:

Target: Pichia pastoris expressed HAMpin-1 (pHAMpin-1) (Hyalomma anatolicum)
Assay: affinity purification with mass spectrometry; 96-well plate coated with 1 μg/well pHAMpin-1; 10% bovine serum in PBS, 30 min, 37 °C; eluted with 0.2 M glycine pH 2.3; LC-MS/MS; proteins from BSA wells subtracted; only the target purified

B1: interalpha-trypsin heavy chain H4 (ITIH4) of bovine serum (protein, UniProt Q3T052 28-916)
chain: QKVQNDIDIYSLTVDSKVSSRFAHTVITSRVVNKADAVREATFQMELPKKAFITNFSMVIDGVTYPGNIKEKAAAQEQYSAAVARGESAGLVRATGRKTEQFQVSVSVAPAAKVTFELVYEELLARHLGAYELLLKVRPQQLVKHLQMDIHIFEPQGISFLETESTFMTNKLAEALTTSQNKTKAHVRFKPTLSQQQKYPEKQDTVIDGSFIVRYDVDRPLSGGSIQIENGYFVHYFAPDSLSTIPKNVIFVIDKSGSMMGRKIKQTREALIKILDDLSPHDQFDLISFSSEATTWKPLLVPASTENVNEAKSYATGIQAQGGTNINDAMLMAVQLLEKANQEELLPEGSITLIILLTDGDPTVGETNPLNIQKNVRKAINGQHSLFCLGFGFDVSYAFLEKMALENGGLARRIYEDSDSALQLQDFYQEVANPLMTSVAFEYPSNAVESVTQDTFRVFFKGSELVVAGKLREQSPDVLLAQIRGQLHRENITYMMMSHVAEQEEMFRSPKYIFHSFIERLWAYLTIQQLLEQMVSALDAEKQALEARALSLSLSYSFVTPLTSMVITKPEGQEQSQVAEKPVEDESRGSRVYLGPMRFGHSVGDRTSRKPGGGLKLLNGTPLFGPPGPPAAASPFHRMTSRLVLPELMSPLAPASAPSPTSGPGGASHDTDFRIKGTTPTALPFAPVQAPSVILPLPGQSVDRLCVDLRRPQELVNLLSDPDQGVEVTGHFETAKARFSWIEVTFENPQVQIHASPEHVVMTRNRRNSAYKWKETLYSVMPGLKVTMDKEGLLLLSRPDRVTIGLLFWDGPGKGLRLLLQNTDRFSSHVSGTLGQFYQDVLWGPLDTADDSKRTLKVQGRDYSATRELKLDYQESPPGKEISCWSVEL
B1 was tested. Which binding did it give?
The binding was “binds”.

Results are given in words; binding and its absence hold for the method and conditions named. In cells and extracts the contact can be indirect. These calls come from enrichment with a bait or labelling near it, and not all partners need be listed.
